According to article PMC11349808:
No constants are given. Whether binding was seen depends on the method and setting. In cells and extracts the contact can be indirect. Some entries that bind do so weakly or less than the wild type. Where a sequence is shown, tags or fusion partners need not be part of it.

Amino acid sequences for entries named in this document (tags omitted).
UniProt O09106: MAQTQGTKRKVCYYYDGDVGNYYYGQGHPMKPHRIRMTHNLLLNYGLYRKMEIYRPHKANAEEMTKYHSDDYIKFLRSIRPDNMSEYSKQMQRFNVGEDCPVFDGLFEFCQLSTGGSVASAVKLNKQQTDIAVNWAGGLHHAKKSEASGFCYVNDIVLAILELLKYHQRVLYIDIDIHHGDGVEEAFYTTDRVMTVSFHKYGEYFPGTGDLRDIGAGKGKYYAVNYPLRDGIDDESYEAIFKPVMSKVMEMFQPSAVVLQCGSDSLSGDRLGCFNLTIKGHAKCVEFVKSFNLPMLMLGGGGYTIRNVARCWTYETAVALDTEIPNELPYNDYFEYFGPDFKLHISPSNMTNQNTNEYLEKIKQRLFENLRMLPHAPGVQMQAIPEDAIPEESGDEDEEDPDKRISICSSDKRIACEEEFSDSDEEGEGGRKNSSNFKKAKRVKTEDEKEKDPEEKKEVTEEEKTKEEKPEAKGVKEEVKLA

T1: Sin3 histone deacetylase corepressor complex component SDS3 (mouse (endogenous in BV2)) (UniProt Q8BR65)
T1 sequence: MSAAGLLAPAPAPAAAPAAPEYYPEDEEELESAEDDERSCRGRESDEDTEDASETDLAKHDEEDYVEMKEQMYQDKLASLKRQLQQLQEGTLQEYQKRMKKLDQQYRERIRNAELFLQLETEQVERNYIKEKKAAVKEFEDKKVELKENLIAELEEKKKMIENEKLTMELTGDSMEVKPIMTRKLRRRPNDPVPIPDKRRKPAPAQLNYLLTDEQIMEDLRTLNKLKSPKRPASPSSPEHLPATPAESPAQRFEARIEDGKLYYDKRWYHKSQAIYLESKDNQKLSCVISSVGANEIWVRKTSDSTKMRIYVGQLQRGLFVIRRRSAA


Molecular target: T1, Sin3 histone deacetylase corepressor complex component SDS3 (mouse (endogenous in BV2))
Test: co-IP; immunoprecipitation with anti-SDS3 from BV2 cells, Western blotting for Sin3A and HDAC1; endogenous proteins

binding | Molecule
binds | HDAC1 (from UniProt O09106 1-482)
binds | paired amphipathic helix protein Sin3A (protein, UniProt Q60520 1-1274) MKRRLDDQESPVYAAQQRRIPGSTEAFSHQHRVLAPAPPVYEAVSETMQSATGIQYSVAPNYQVSAVPQSSGSHGPAIAAVHSSHHHPTAVQPHGGQVVQSHAHPAPPVAPVQGQQQFQRLKVEDALSYLDQVKLQFGSQPQVYNDFLDIMKEFKSQSIDTPGVISRVSQLFKGHPDLIMGFNTFLPPGYKIEVQTNDMVNVTTPGQVHQIPTHGIQPQPQPPPQHPSQPSSQSAPTPAQPAPQPTAAKVSKPSQLQAHTPASQQTPPLPPYASPRSPPVQPHTPVTISLGTAPSLQNNQPVEFNHAINYVNKIKNRFQGQPDIYKAFLEILHTYQKEQRNAKEAGGNYTPALTEQEVYAQVARLFKNQEDLLSEFGQFLPDANSSVLLSKTTAEKVDSVRNDHGGTVKKPQLNNKPQRPSQNGCQIRRHSGTGATPPVKKKPKLMSLKESSMADASKHGVGTESLFFDKVRKALRSAEAYENFLRCLVIFNQEVISRAELVQLVSPFLGKFPELFNWFKNFLGYKESVHLESFPKERATEGIAMEIDYASCKRLGSSYRALPKSYQQPKCTGRTPLCKEVLNDTWVSFPSWSEDSTFVSSKKTQYEEHIYRCEDERFELDVVLETNLATIRVLEAIQKKLSRLSAEEQAKFRLDNTLGGTSEVIHRKALQRIYADKAADIIDGLRKNPSIAVPIVLKRLKMKEEEWREAQRGFNKVWREQNEKYYLKSLDHQGINFKQNDTKVLRSKSLLNEIESIYDERQEQATEENAGVPVGPHLSLAYEDKQILEDAAALIIHHVKRQTGIQKEDKYKIKQIMHHFIPDLLFAQRGDLSDVEEEEEEEMDVDEATGAPKKHNGVGGSPPKSKLLFSNTAAQKLRGMDEVYNLFYVNNNWYIFMRLHQILCLRLLRICSQAERQIEEENREREWEREVLGIKRDKSDSPAIQLRLKEPMDVDVEDYYPAFLDMVRSLLDGNIDSSQYEDSLREMFTIHAYIAFTMDKLIQSIVRQLQHIVSDEVCVQVTDLYLAENNNGATGGQLNSQTSRSLLESAYQRKAEQLMSDENCFKLMFIQSQGQVQLTVELLDTEEENSDDPVEAERWSDYVERYMSSDTTSPELREHLAQKPVFLPRNLRRIRKCQRGREQQEKEGKEGNSKKTMENVESLDKLECRFKLNSYKMVYVIKSEDYMYRRTALLRAHQSHERVSKRLHQRFQAWVDKWTKEHVPREMAAETSKWLMGEGLEGLVPCTTTCDTETLHFVSINKYRVKYGTVFKAP
